# Measurements taken from the supplement of paper PMC5355238.
# Counter-ions that a name gives are not always drawn. Some of the results follow. Most values lie at the level of the controls, where differences are scatter.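 Using flow cytometry, the assay measures the median γH2AX antibody signal in S-phase Reh cells (a human leukemia line). Each score is the number of standard deviations from the median difference of paired plate sets. Candidate hits scored above 2.5; compounds scoring below -2 lowered MK1775-induced damage.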
# System: Reh
# Experiment: Z' of S-phase gammaH2AX difference (drug + MK1775 minus drug alone) (Z-score); higher = stronger synergistic S-phase DNA damage with MK1775
# Details: MK1775 concentration 400 nM; first compound 10 µM; 4 h
row,Compound,Z' of S-phase gammaH2AX difference (Z-score)
1,CCCNCC(O)COc1ccccc1C(=O)CCc1ccccc1 (centres undefined) [Propafenone hydrochloride] + C=CCn1c(=O)c2cnc(Nc3ccc(N4CCN(C)CC4)cc3)nc2n1-c1cccc(C(C)(C)O)n1 [MK1775],inactive: 0.00485
2,CCCCCCCCCCCCCCCCCC(=O)OC(CC(=O)O)C[N+](C)(C)C (racemic) [DL-Stearoylcarnitine chloride] + C=CCn1c(=O)c2cnc(Nc3ccc(N4CCN(C)CC4)cc3)nc2n1-c1cccc(C(C)(C)O)n1 [MK1775],inactive: -1.62
3,COc1ccccc1OCC(O)CN1CCN(CC(=O)Nc2c(C)cccc2C)CC1 (centres undefined) [Ranolazine (Ranexa)] + C=CCn1c(=O)c2cnc(Nc3ccc(N4CCN(C)CC4)cc3)nc2n1-c1cccc(C(C)(C)O)n1 [MK1775],inactive: 0.134
4,COc1ccccc1OCC(O)CN1CCN(CC(=O)Nc2c(C)cccc2C)CC1 (centres undefined) [Ranolazine dihydrochloride] + C=CCn1c(=O)c2cnc(Nc3ccc(N4CCN(C)CC4)cc3)nc2n1-c1cccc(C(C)(C)O)n1 [MK1775],inactive: 0.228
5,O=[N+]([O-])c1cccc2cn[nH]c12 [7-Nitroindazole] + C=CCn1c(=O)c2cnc(Nc3ccc(N4CCN(C)CC4)cc3)nc2n1-c1cccc(C(C)(C)O)n1 [MK1775],inactive: 0.097
6,CC(C)[C@@H]1NC(=O)[C@H](CCCCN)NC(=O)[C@@H](Cc2c[nH]c3ccccc23)NC(=O)[C@H](Cc2ccc(O)cc2)NC(=O)[C@H](C)N(C)C(=O)[C@H](Cc2ccccc2)NC1=O [Seglitide] + C=CCn1c(=O)c2cnc(Nc3ccc(N4CCN(C)CC4)cc3)nc2n1-c1cccc(C(C)(C)O)n1 [MK1775],inactive: -0.0802
7,COc1cc([C@@H]2c3cc4c(cc3[C@@H](O[C@@H]3O[C@@H]5CO[C@@H](C)O[C@H]5[C@H](O)[C@H]3O)[C@H]3COC(=O)[C@H]23)OCO4)cc(OC)c1O [Etoposide] + C=CCn1c(=O)c2cnc(Nc3ccc(N4CCN(C)CC4)cc3)nc2n1-c1cccc(C(C)(C)O)n1 [MK1775],active: 6.63
8,CCn1ccnc1CC1COc2ccccc2O1 (centres undefined) [Imiloxan hydrochloride] + C=CCn1c(=O)c2cnc(Nc3ccc(N4CCN(C)CC4)cc3)nc2n1-c1cccc(C(C)(C)O)n1 [MK1775],inactive: -1.61
9,O=C1CC2(CCCC2)CC(=O)N1CCCCN1CCN(c2ncccn2)CC1 [Buspirone hydrochloride] + C=CCn1c(=O)c2cnc(Nc3ccc(N4CCN(C)CC4)cc3)nc2n1-c1cccc(C(C)(C)O)n1 [MK1775],inactive: 0.14
10,O=C(NOC[C@H](O)CO)c1ccc(F)c(F)c1Nc1ccc(I)cc1F + C=CCn1c(=O)c2cnc(Nc3ccc(N4CCN(C)CC4)cc3)nc2n1-c1cccc(C(C)(C)O)n1 [MK1775],inactive: 0.154
11,Cc1cc(C)c(/C=C2\C(=O)Nc3ccccc32)[nH]1 + C=CCn1c(=O)c2cnc(Nc3ccc(N4CCN(C)CC4)cc3)nc2n1-c1cccc(C(C)(C)O)n1 [MK1775],inactive: -0.0392
12,"N[C@H](C(=O)O)c1cc(O)cc(O)c1 [(S)-3,5-Dihydroxyphenylglycine] + C=CCn1c(=O)c2cnc(Nc3ccc(N4CCN(C)CC4)cc3)nc2n1-c1cccc(C(C)(C)O)n1 [MK1775]",inactive: -0.425
13,Cc1cccc(C#Cc2ccccc2)n1 [6-Methyl-2-(phenylethynyl)pyridine hydrochloride] + C=CCn1c(=O)c2cnc(Nc3ccc(N4CCN(C)CC4)cc3)nc2n1-c1cccc(C(C)(C)O)n1 [MK1775],inactive: 0.369
14,O=C(Nc1ncc([N+](=O)[O-])s1)c1ccc([N+](=O)[O-])c(Cl)c1 [NF??B Activation Inhibitor III] + C=CCn1c(=O)c2cnc(Nc3ccc(N4CCN(C)CC4)cc3)nc2n1-c1cccc(C(C)(C)O)n1 [MK1775],inactive: 0.221
15,C=CCN1CCc2c(cc(O)c(O)c2Br)[C@@H](c2ccccc2)C1 [R(+)-6-Bromo-APB hydrobromide] + C=CCn1c(=O)c2cnc(Nc3ccc(N4CCN(C)CC4)cc3)nc2n1-c1cccc(C(C)(C)O)n1 [MK1775],inactive: 0.0501
16,CN1CCN(CCOc2cc(OC3CCOCC3)c3c(Nc4c(Cl)ccc5c4OCO5)ncnc3c2)CC1 [Saracatinib (AZD0530)] + C=CCn1c(=O)c2cnc(Nc3ccc(N4CCN(C)CC4)cc3)nc2n1-c1cccc(C(C)(C)O)n1 [MK1775],inactive: 0.509
17,Nc1ccc(S(=O)(=O)Nc2ccnn2-c2ccccc2)cc1 [Sulfaphenazole] + C=CCn1c(=O)c2cnc(Nc3ccc(N4CCN(C)CC4)cc3)nc2n1-c1cccc(C(C)(C)O)n1 [MK1775],inactive: 0.0615

row,Compound,Z' of S-phase gammaH2AX difference (Z-score)
1,Nc1nc2[nH]c(=O)cnc2c(=O)[nH]1 [Isoxanthopterin] + C=CCn1c(=O)c2cnc(Nc3ccc(N4CCN(C)CC4)cc3)nc2n1-c1cccc(C(C)(C)O)n1 [MK1775],inactive: -0.197
2,CC(C)(C)[C@]1(O)CCN2C[C@H]3c4ccccc4CCc4cccc(c43)[C@@H]2C1 [(+)-Butaclamol hydrochloride] + C=CCn1c(=O)c2cnc(Nc3ccc(N4CCN(C)CC4)cc3)nc2n1-c1cccc(C(C)(C)O)n1 [MK1775],inactive: 0.611
3,Nc1ncnc2c1nc(Sc1ccc(Cl)cc1)n2C1OC2COP(=O)(O)O[C@@H]2[C@@H]1O (some centres undefined) [8-(4-Chlorophenylthio)-cAMP sodium] + C=CCn1c(=O)c2cnc(Nc3ccc(N4CCN(C)CC4)cc3)nc2n1-c1cccc(C(C)(C)O)n1 [MK1775],inactive: 0.585
4,O=C(O)C1=CCCNC1 [Guvacine hydrochloride] + C=CCn1c(=O)c2cnc(Nc3ccc(N4CCN(C)CC4)cc3)nc2n1-c1cccc(C(C)(C)O)n1 [MK1775],inactive: 1.66
5,NCCNC(=O)c1ncsc1-c1cccc(F)c1 [Ro 41-1049 hydrochloride] + C=CCn1c(=O)c2cnc(Nc3ccc(N4CCN(C)CC4)cc3)nc2n1-c1cccc(C(C)(C)O)n1 [MK1775],inactive: -2.33
6,COc1ccccc1N1CCN(CCCCNS(=O)(=O)c2cccc3c(N(C)C)cccc23)CC1 [Cortexolone maleate] + C=CCn1c(=O)c2cnc(Nc3ccc(N4CCN(C)CC4)cc3)nc2n1-c1cccc(C(C)(C)O)n1 [MK1775],inactive: 0.0317
7,C[C@@H]1C[C@H]2[C@@H]3CCC4=CC(=O)C=C[C@]4(C)[C@@]3(F)[C@@H](O)C[C@]2(C)[C@@]1(O)C(=O)CO [Dexamethasone] + C=CCn1c(=O)c2cnc(Nc3ccc(N4CCN(C)CC4)cc3)nc2n1-c1cccc(C(C)(C)O)n1 [MK1775],inactive: 0.277
8,Cc1cnc(NC(=O)C2=C(O)c3ccccc3S(=O)(=O)N2C)s1 [Meloxicam sodium] + C=CCn1c(=O)c2cnc(Nc3ccc(N4CCN(C)CC4)cc3)nc2n1-c1cccc(C(C)(C)O)n1 [MK1775],inactive: 0.354
9,O=C(O)CCCc1ccccc1 [4-Phenylbutyrate] + C=CCn1c(=O)c2cnc(Nc3ccc(N4CCN(C)CC4)cc3)nc2n1-c1cccc(C(C)(C)O)n1 [MK1775],inactive: 0.492
10,N=C(N)SCCc1c[nH]cn1 [Imetit dihydrobromide] + C=CCn1c(=O)c2cnc(Nc3ccc(N4CCN(C)CC4)cc3)nc2n1-c1cccc(C(C)(C)O)n1 [MK1775],inactive: 0.0364
11,CN(C)c1ccc(/C=C2/C(=O)Nc3ccccc32)cc1 + C=CCn1c(=O)c2cnc(Nc3ccc(N4CCN(C)CC4)cc3)nc2n1-c1cccc(C(C)(C)O)n1 [MK1775],inactive: -0.319
12,COc1cc(NS(C)(=O)=O)ccc1Nc1c2ccccc2nc2ccccc12 [Amsacrine hydrochloride] + C=CCn1c(=O)c2cnc(Nc3ccc(N4CCN(C)CC4)cc3)nc2n1-c1cccc(C(C)(C)O)n1 [MK1775],active: 3.16
13,FC(F)c1nc2ccccc2n1-c1nc(N2CCOCC2)nc(N2CCOCC2)n1 + C=CCn1c(=O)c2cnc(Nc3ccc(N4CCN(C)CC4)cc3)nc2n1-c1cccc(C(C)(C)O)n1 [MK1775],inactive: -0.0495
14,"CCCn1c(=O)c2c(ncn2C)n(CCC)c1=O [1,3-Dipropyl-7-methylxanthine] + C=CCn1c(=O)c2cnc(Nc3ccc(N4CCN(C)CC4)cc3)nc2n1-c1cccc(C(C)(C)O)n1 [MK1775]",inactive: 1.29
15,C[C@H]1C[C@H]2[C@@H]3CCC4=CC(=O)C=C[C@]4(C)[C@@]3(F)[C@@H](O)C[C@]2(C)[C@@]1(O)C(=O)CO [Betamethasone] + C=CCn1c(=O)c2cnc(Nc3ccc(N4CCN(C)CC4)cc3)nc2n1-c1cccc(C(C)(C)O)n1 [MK1775],inactive: 0.0768
16,Cc1ccc(Cl)c(Nc2ccccc2C(=O)O)c1Cl [Meclofenamic acid sodium] + C=CCn1c(=O)c2cnc(Nc3ccc(N4CCN(C)CC4)cc3)nc2n1-c1cccc(C(C)(C)O)n1 [MK1775],inactive: 2.11
17,COC(=O)C1=C(C)NC(C)=C(C(=O)OCCCN2CCC(c3ccccc3)(c3ccccc3)CC2)[C@H]1c1cccc([N+](=O)[O-])c1 [S-(+)-Niguldipine hydrochloride] + C=CCn1c(=O)c2cnc(Nc3ccc(N4CCN(C)CC4)cc3)nc2n1-c1cccc(C(C)(C)O)n1 [MK1775],inactive: -0.639

# Rewritten bar-delimited: entries from further up.
row | Compound | Z' of S-phase gammaH2AX difference (Z-score)
11 | CN(C)c1ccc(/C=C2/C(=O)Nc3ccccc32)cc1 + C=CCn1c(=O)c2cnc(Nc3ccc(N4CCN(C)CC4)cc3)nc2n1-c1cccc(C(C)(C)O)n1 [MK1775] | inactive: -0.319
12 | COc1cc(NS(C)(=O)=O)ccc1Nc1c2ccccc2nc2ccccc12 [Amsacrine hydrochloride] + C=CCn1c(=O)c2cnc(Nc3ccc(N4CCN(C)CC4)cc3)nc2n1-c1cccc(C(C)(C)O)n1 [MK1775] | active: 3.16
13 | FC(F)c1nc2ccccc2n1-c1nc(N2CCOCC2)nc(N2CCOCC2)n1 + C=CCn1c(=O)c2cnc(Nc3ccc(N4CCN(C)CC4)cc3)nc2n1-c1cccc(C(C)(C)O)n1 [MK1775] | inactive: -0.0495
14 | CCCn1c(=O)c2c(ncn2C)n(CCC)c1=O [1,3-Dipropyl-7-methylxanthine] + C=CCn1c(=O)c2cnc(Nc3ccc(N4CCN(C)CC4)cc3)nc2n1-c1cccc(C(C)(C)O)n1 [MK1775] | inactive: 1.29
15 | C[C@H]1C[C@H]2[C@@H]3CCC4=CC(=O)C=C[C@]4(C)[C@@]3(F)[C@@H](O)C[C@]2(C)[C@@]1(O)C(=O)CO [Betamethasone] + C=CCn1c(=O)c2cnc(Nc3ccc(N4CCN(C)CC4)cc3)nc2n1-c1cccc(C(C)(C)O)n1 [MK1775] | inactive: 0.0768
16 | Cc1ccc(Cl)c(Nc2ccccc2C(=O)O)c1Cl [Meclofenamic acid sodium] + C=CCn1c(=O)c2cnc(Nc3ccc(N4CCN(C)CC4)cc3)nc2n1-c1cccc(C(C)(C)O)n1 [MK1775] | inactive: 2.11
17 | COC(=O)C1=C(C)NC(C)=C(C(=O)OCCCN2CCC(c3ccccc3)(c3ccccc3)CC2)[C@H]1c1cccc([N+](=O)[O-])c1 [S-(+)-Niguldipine hydrochloride] + C=CCn1c(=O)c2cnc(Nc3ccc(N4CCN(C)CC4)cc3)nc2n1-c1cccc(C(C)(C)O)n1 [MK1775] | inactive: -0.639
